Test [1] has as its target T1, Dsp1 (dorsal switch protein) (Drosophila (endogenous in SL2 cells)) (UniProt Q24537).
T1 sequence: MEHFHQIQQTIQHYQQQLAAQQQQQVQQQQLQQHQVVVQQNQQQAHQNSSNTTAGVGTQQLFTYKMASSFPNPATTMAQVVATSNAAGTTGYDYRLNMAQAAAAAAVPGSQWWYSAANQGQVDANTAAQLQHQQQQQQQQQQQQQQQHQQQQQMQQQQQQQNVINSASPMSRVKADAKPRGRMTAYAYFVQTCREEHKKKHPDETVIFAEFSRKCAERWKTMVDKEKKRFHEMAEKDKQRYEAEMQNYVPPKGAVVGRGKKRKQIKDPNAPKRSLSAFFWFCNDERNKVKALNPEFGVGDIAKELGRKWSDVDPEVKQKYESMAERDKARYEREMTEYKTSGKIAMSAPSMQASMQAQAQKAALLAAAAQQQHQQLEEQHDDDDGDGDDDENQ
Put plainly: co-IP; nuclear extracts of SL2 cells treated with LPS/PGN (10 μg/ml for 45 min); 5 μg antibody against endogenous protein, Protein G beads, 4 °C for 1 h; immunoblot of the pellets.

Protein sequences, listed by entry. Tags and fused reporters are not part of them.
UniProt Q94517: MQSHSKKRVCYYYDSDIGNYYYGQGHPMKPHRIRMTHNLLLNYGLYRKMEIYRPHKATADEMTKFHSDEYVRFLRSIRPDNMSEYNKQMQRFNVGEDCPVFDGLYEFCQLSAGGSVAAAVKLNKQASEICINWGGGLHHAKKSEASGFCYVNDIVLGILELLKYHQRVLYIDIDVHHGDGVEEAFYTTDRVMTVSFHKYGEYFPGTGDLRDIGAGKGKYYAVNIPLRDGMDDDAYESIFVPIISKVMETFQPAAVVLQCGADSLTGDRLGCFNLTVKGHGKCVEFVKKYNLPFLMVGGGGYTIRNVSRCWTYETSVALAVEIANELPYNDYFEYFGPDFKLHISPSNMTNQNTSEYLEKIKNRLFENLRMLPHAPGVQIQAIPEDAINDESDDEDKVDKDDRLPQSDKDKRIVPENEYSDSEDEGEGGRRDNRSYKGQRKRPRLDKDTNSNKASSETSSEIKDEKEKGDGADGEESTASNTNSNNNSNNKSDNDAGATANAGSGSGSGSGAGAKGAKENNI

Test [2] deals with T2, Jra (Drosophila (endogenous in SL2 cells)) (UniProt P18289).
T2 sequence: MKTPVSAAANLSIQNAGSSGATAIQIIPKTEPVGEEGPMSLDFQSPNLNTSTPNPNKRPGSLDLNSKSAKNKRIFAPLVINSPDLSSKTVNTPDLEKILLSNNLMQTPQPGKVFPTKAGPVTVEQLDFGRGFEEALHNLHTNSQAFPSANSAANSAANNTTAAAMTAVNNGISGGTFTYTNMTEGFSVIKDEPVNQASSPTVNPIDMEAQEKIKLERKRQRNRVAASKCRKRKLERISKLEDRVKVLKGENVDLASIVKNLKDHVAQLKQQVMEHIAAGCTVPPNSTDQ
Described as above.

Test [3] concerns the target T3, Stat92E (Drosophila (endogenous in SL2 cells)) (UniProt Q24151).
T3 sequence: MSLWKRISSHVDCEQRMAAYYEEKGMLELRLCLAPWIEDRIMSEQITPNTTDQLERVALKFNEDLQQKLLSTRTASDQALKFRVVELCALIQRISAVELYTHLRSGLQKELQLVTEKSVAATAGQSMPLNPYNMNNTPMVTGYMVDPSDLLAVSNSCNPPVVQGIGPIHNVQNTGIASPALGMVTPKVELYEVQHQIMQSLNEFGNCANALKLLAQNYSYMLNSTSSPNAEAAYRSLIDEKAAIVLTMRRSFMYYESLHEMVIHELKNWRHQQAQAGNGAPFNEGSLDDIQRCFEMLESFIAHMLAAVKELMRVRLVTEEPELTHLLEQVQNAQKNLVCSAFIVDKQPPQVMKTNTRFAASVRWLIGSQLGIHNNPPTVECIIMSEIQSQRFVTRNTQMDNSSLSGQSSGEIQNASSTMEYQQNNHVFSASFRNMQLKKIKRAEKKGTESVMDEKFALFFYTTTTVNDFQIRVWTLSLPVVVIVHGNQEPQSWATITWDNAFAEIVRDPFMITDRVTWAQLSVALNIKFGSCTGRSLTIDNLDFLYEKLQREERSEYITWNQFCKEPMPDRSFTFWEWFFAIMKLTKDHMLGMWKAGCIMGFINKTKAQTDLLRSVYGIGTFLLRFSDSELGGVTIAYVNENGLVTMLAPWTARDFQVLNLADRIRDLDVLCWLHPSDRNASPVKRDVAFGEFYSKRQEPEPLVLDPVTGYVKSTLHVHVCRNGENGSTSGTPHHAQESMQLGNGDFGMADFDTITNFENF
Described as above.

The target in test [4] is T1, Dsp1 (dorsal switch protein) (Drosophila (endogenous in SL2 cells)). Put plainly: co-IP; as the co-IP from LPS/PGN-treated SL2 nuclear extracts, with a high concentration of ethidium bromide added to the extracts; unpublished data.
Test [5] has as its target T2, Jra (Drosophila (endogenous in SL2 cells)). The description is as above.
Test [6] addresses T3, Stat92E (Drosophila (endogenous in SL2 cells)). The test is described as above.
Test [7] concerns the target T2, Jra (Drosophila (endogenous in SL2 cells)). The test can be described thus: co-IP; nuclear extracts of SL2 cells without LPS/PGN treatment; antibody against endogenous protein, Protein G beads; immunoblot of the pellets. A general note: Immunoblotting shows a protein as a band on a membrane.
Test [8] addresses T3, Stat92E (Drosophila (endogenous in SL2 cells)). The test is described as above.

The text below walks through data of PMC1964775.

Results are given in words; binding and its absence hold for the method and conditions named. Binding seen in cells or lysates may run through a third protein. Some results given as binding are weak or reduced against the parent protein; the word gives no strength.

On to “dHDAC1 (from UniProt Q94517 1-521) (enzyme)”, for which the binding result in test [1], in test [2], in test [3], in test [4], in test [5] and in test [6] was “binds” throughout.

B1: Dsp1 (dorsal switch protein) (protein, UniProt Q24537 1-393)
chain: MEHFHQIQQTIQHYQQQLAAQQQQQVQQQQLQQHQVVVQQNQQQAHQNSSNTTAGVGTQQLFTYKMASSFPNPATTMAQVVATSNAAGTTGYDYRLNMAQAAAAAAVPGSQWWYSAANQGQVDANTAAQLQHQQQQQQQQQQQQQQQHQQQQQMQQQQQQQNVINSASPMSRVKADAKPRGRMTAYAYFVQTCREEHKKKHPDETVIFAEFSRKCAERWKTMVDKEKKRFHEMAEKDKQRYEAEMQNYVPPKGAVVGRGKKRKQIKDPNAPKRSLSAFFWFCNDERNKVKALNPEFGVGDIAKELGRKWSDVDPEVKQKYESMAERDKARYEREMTEYKTSGKIAMSAPSMQASMQAQAQKAALLAAAAQQQHQQLEEQHDDDDGDGDDDENQ
Turning to B1, the binding entry in test [7] was “binds weakly”; in test [8] it was “binds weakly”; in test [2], “binds”; in test [3], “binds”; in test [5], “binds”; in test [6], “binds”.

B2: Stat92E (protein, UniProt Q24151 1-761)
chain: MSLWKRISSHVDCEQRMAAYYEEKGMLELRLCLAPWIEDRIMSEQITPNTTDQLERVALKFNEDLQQKLLSTRTASDQALKFRVVELCALIQRISAVELYTHLRSGLQKELQLVTEKSVAATAGQSMPLNPYNMNNTPMVTGYMVDPSDLLAVSNSCNPPVVQGIGPIHNVQNTGIASPALGMVTPKVELYEVQHQIMQSLNEFGNCANALKLLAQNYSYMLNSTSSPNAEAAYRSLIDEKAAIVLTMRRSFMYYESLHEMVIHELKNWRHQQAQAGNGAPFNEGSLDDIQRCFEMLESFIAHMLAAVKELMRVRLVTEEPELTHLLEQVQNAQKNLVCSAFIVDKQPPQVMKTNTRFAASVRWLIGSQLGIHNNPPTVECIIMSEIQSQRFVTRNTQMDNSSLSGQSSGEIQNASSTMEYQQNNHVFSASFRNMQLKKIKRAEKKGTESVMDEKFALFFYTTTTVNDFQIRVWTLSLPVVVIVHGNQEPQSWATITWDNAFAEIVRDPFMITDRVTWAQLSVALNIKFGSCTGRSLTIDNLDFLYEKLQREERSEYITWNQFCKEPMPDRSFTFWEWFFAIMKLTKDHMLGMWKAGCIMGFINKTKAQTDLLRSVYGIGTFLLRFSDSELGGVTIAYVNENGLVTMLAPWTARDFQVLNLADRIRDLDVLCWLHPSDRNASPVKRDVAFGEFYSKRQEPEPLVLDPVTGYVKSTLHVHVCRNGENGSTSGTPHHAQESMQLGNGDFGMADFDTITNFENF
As for B2, the binding entry is given as “binds weakly” in test [7], “binds” in test [1], “binds” in test [2] and “binds” in test [5].

B3: Jra (protein, UniProt P18289 1-289)
chain: MKTPVSAAANLSIQNAGSSGATAIQIIPKTEPVGEEGPMSLDFQSPNLNTSTPNPNKRPGSLDLNSKSAKNKRIFAPLVINSPDLSSKTVNTPDLEKILLSNNLMQTPQPGKVFPTKAGPVTVEQLDFGRGFEEALHNLHTNSQAFPSANSAANSAANNTTAAAMTAVNNGISGGTFTYTNMTEGFSVIKDEPVNQASSPTVNPIDMEAQEKIKLERKRQRNRVAASKCRKRKLERISKLEDRVKVLKGENVDLASIVKNLKDHVAQLKQQVMEHIAAGCTVPPNSTDQ
For the molecule B3, the binding result in test [1] and in test [3] was “binds” each time.
